{
  "source": "patent US20100210539A1",
  "about": "“USE OF PEPTIDE LL-37 AS A THERAPEUTIC AGENT” (priority 2007, published 2010)",
  "key": {"A549 cells [1]": {"tested_on": "A549 cells", "assay": "Propidium iodide cell cycle assay", "format": "cell-based, human", "conditions": "peptide 10 micrograms per ml, 24 hours, Propidium iodide FACS"}, "[2]": {"tested_on": "Human Peripheral Blood Mononuclear Cells (PBMC), T cell proliferation", "assay": "T cell proliferation assay (PHA, 3H-thymidine)", "format": "cell-based", "conditions": "peptide 10 micrograms per ml"}, "[3]": {"tested_on": "Human Peripheral Blood Mononuclear Cells (PBMC), B cell proliferation", "assay": "B cell proliferation assay (SAC plus IL-2, 3H-thymidine)", "format": "cell-based", "conditions": "peptide 10 micrograms per ml"}, "A549 cells [4]": {"tested_on": "A549 cells", "assay": "Apoptosis induction assay (Annexin-5)", "format": "cell-based, human", "conditions": "peptide 10 micrograms per ml, 24 hours"}, "A549 cells [5]": {"tested_on": "A549 cells", "assay": "Apoptosis prevention assay (C2 ceramide, Annexin-5)", "format": "cell-based, human", "conditions": "pretreated 30 min with peptide 10 micrograms per ml"}, "[6]": {"tested_on": "spleen cells of Ovalbumin-immunized Balb/c mice", "assay": "Th1/Th2 cytokine profiling assay, Ovalbumin-restimulated spleen cells", "format": "cell-based, mouse", "conditions": "peptide 10 micrograms per ml; Ovalbumin restimulation; 72 hours"}, "[7]": {"tested_on": "TNF alpha production in PBMC-derived macrophages", "assay": "TNF alpha production assay, LPS-stimulated macrophages (ELISA)", "format": "cell-based", "conditions": "human macrophages, peptide 10 micrograms per ml, lipopolysaccharide 200 ng/ml, overnight"}, "[8]": {"tested_on": "Primary Human endothelial cells (HUVEC)", "assay": "Endothelial cell migration assay", "format": "cell-based", "conditions": "peptide 10 micrograms per ml, 22 hours"}, "HUVEC": {"tested_on": "HUVEC", "assay": "Endothelial tube formation assay", "format": "cell-based, human", "conditions": "peptide 10 micrograms per ml, 20 hours"}, "[9]": {"tested_on": "HIV-1IIIB in CEM-SS cells", "assay": "HIV-1 antiviral assay, CPE reduction (MTS)", "conditions": "peptide 10 micrograms per ml, 6 days post-infection"}, "RAW 264.7 cells": {"tested_on": "RAW 264.7 cells", "assay": "Phagocytosis assay, Fluorescein-labeled Escherichia coli", "conditions": "peptide 10 micrograms per ml, flow cytometry"}},
  "note": "At least one peptide structure holds a part that was inferred or is arguable (an end, a ring closure or a residue).",
  "data": [
    {"smiles": "CC[C@H](C)[C@H](NC(=O)[C@H](CCCCN)NC(=O)[C@H](CCC(=O)O)NC(=O)[C@H](CCCCN)NC(=O)[C@H](CO)NC(=O)[C@H](CCCCN)NC(=O)[C@H](CCCNC(=N)N)NC(=O)[C@H](Cc1ccccc1)NC(=O)[C@H](Cc1ccccc1)NC(=O)[C@H](CC(=O)O)NC(=O)CNC(=O)[C@H](CC(C)C)NC(=O)[C@@H](N)CC(C)C)C(=O)NCC(=O)N[C@@H](CCCCN)C(=O)N[C@@H](CCC(=O)O)C(=O)N[C@@H](Cc1ccccc1)C(=O)N[C@@H](CCCCN)C(=O)N[C@@H](CCCNC(=N)N)C(=O)N[C@H](C(=O)N[C@H](C(=O)N[C@@H](CCC(N)=O)C(=O)N[C@@H](CCCNC(=N)N)C(=O)N[C@H](C(=O)N[C@@H](CCCCN)C(=O)N[C@@H](CC(=O)O)C(=O)N[C@@H](Cc1ccccc1)C(=O)N[C@@H](CC(C)C)C(=O)N[C@@H](CCCNC(=N)N)C(=O)N[C@@H](CC(N)=O)C(=O)N[C@@H](CC(C)C)C(=O)N[C@H](C(=O)N1CCC[C@H]1C(=O)N[C@@H](CCCNC(=N)N)C(=O)N[C@H](C(=O)N[C@@H](CCC(=O)O)C(=O)N[C@@H](CO)C(N)=O)[C@@H](C)O)C(C)C)[C@@H](C)CC)C(C)C)[C@@H](C)CC", "note": "[LL-37]", "values": [
      {"measurement": "Cell cycle analysis G0/G1", "setting": "A549 cells [1]", "value": 50.6},
      {"measurement": "Cell cycle analysis G2/M", "setting": "A549 cells [1]", "value": 2.0},
      {"measurement": "Cell cycle analysis S", "setting": "A549 cells [1]", "value": 47.4},
      {"measurement": "% of PHA induced control", "setting": "[2]", "value": 96.8, "unit": "%"},
      {"measurement": "% of SAC/IL2 induced control", "setting": "[3]", "value": 66.9, "unit": "%"},
      {"measurement": "% of induction", "setting": "A549 cells [4]", "value": 0.2, "unit": "%"},
      {"measurement": "% prevention of ceramide induced apoptosis", "setting": "A549 cells [5]", "value": 0.0, "unit": "%"},
      {"measurement": "IFNγ spleen cells; TH1 response (% of control)", "setting": "[6]", "value": "21.2 % of control"},
      {"measurement": "IL-2 spleen cells (% of control)", "setting": "[6]", "value": "172.1 % of control"},
      {"measurement": "IL-4 spleen cells; TH2 response (% of control)", "setting": "[6]", "value": "0.0 % of control"},
      {"measurement": "IL-5 spleen cells; TH2 response (% of control)", "setting": "[6]", "value": "74.1 % of control"},
      {"measurement": "TNF-a spleen cells; TH1 response (% of control)", "setting": "[6]", "value": "37.0 % of control"},
      {"measurement": "% of LPS induction", "setting": "[7]", "value": 6.8, "unit": "%"},
      {"measurement": "% inhibition of migration", "setting": "[8]", "value": 0, "unit": "%"},
      {"measurement": "% inhibition of tube formation", "setting": "HUVEC", "value": 32, "unit": "%"},
      {"measurement": "% CPE reduction in HIV-1 infected CEM-SS cells", "setting": "[9]", "value": 46.5, "unit": "%"},
      {"measurement": "% of control phagocytosis", "setting": "RAW 264.7 cells", "value": 114.3, "unit": "%"}
    ]}
  ]
}
